Assay results as given in patent US12122736B2, “Salty taste-enhancing agent and manufacturing method therefor, and salty taste-enhancing method” (NISSIN FOODS HOLDINGS CO., LTD., priority 2012, dated 2024).
Some compounds share one wording; it may come from a single statement.

assay: Sensory evaluation of salty taste-enhancing action in salt aqueous solution (Example 1); conditions: 0.150 wt % evaluation sample and 0.700 wt % sodium chloride in distilled water
Procedure: The salty taste-enhancing action may be evaluated by a sensory test.
Each evaluation sample and sodium chloride (salt) were dissolved in distilled water to prepare an aqueous solution containing 0.150 wt % of the evaluation sample and 0.700 wt % of sodium chloride, which was used as an evaluation solution. In addition, solutions containing 0.700 wt %, 0.735 wt %, 0.770 wt %, 0.805 wt %, and 0.840% of sodium chloride were used as comparative objects.

SMILES	Foreign taste and foreign odor
Cl.N=C(N)N [Guanidine hydrochloride]	Almost no foreign taste and foreign odor were sensed.
N=C(N)NCCCO [Example 14]	A bitter taste was sensed.
N=C(N)NCCC(=O)O [β-Guanidinopropanoic acid]	Almost no foreign taste and foreign odor were sensed.
N=C(N)NCCCCCC(=O)O [6-Guanidinocaproic acid]	Almost no foreign taste and foreign odor were sensed.
